The source of these data is article PMC5932160.

In assay [1] the target is T1, GSrhino-SMXL7 (SMAX1-LIKE 7, N-terminal GSrhino fusion) (Arabidopsis thaliana) (UniProt O80875).
T1 sequence: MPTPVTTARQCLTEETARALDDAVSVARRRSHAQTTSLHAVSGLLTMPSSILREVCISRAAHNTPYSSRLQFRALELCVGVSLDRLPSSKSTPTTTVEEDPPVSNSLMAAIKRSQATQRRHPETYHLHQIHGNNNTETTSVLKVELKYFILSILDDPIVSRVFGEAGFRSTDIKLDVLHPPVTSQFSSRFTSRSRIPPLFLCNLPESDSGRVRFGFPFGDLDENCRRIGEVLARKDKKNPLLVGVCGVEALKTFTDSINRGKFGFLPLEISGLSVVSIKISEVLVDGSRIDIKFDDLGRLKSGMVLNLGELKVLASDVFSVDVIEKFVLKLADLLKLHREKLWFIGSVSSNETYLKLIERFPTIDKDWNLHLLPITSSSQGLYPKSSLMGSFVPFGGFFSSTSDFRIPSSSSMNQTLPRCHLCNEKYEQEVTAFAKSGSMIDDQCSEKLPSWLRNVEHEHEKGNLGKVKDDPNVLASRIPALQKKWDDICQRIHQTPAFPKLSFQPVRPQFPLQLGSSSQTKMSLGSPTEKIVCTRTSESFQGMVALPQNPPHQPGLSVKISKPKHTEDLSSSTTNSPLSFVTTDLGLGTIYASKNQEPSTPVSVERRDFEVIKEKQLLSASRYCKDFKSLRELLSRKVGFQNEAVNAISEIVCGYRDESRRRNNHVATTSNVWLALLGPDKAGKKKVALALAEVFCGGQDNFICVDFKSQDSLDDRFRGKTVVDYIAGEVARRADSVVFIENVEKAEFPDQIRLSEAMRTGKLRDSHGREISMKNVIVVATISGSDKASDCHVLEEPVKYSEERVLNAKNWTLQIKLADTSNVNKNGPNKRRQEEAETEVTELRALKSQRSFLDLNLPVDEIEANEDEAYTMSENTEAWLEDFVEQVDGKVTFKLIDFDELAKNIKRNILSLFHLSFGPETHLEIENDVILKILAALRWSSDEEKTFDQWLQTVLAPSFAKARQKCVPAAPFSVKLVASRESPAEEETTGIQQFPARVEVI
Description: affinity purification with mass spectrometry; tandem affinity purification (IgG-Sepharose, rhinovirus 3C protease, streptavidin beads, desthiobiotin elution) from 25 mg total protein extract of Arabidopsis cell cultures harvested after 10 min with 1 μM rac-GR24 or acetone (mock); 4°C, 150 mM NaCl, 0.1% NP-40; LC-MS/MS with label-free quantification or normalisation on the bait level.

In assay [2] the target is GSrhino-tagged ΔSMXL7 (modified SMXL7 resistant to strigolactone-induced degradation) (Arabidopsis thaliana) (UniProt O80875). Described as above.

No constants are given. Whether binding was seen depends on the method and setting. In cells and extracts the contact can be indirect. Here binding means that the protein was enriched with, or labelled near, the bait; the list need not be complete. For some assays here: A no says only that the protein was not detected with the bait. For some assays here: Tags and fused reporters may be left off the sequences shown.

Take ubiquitin, endogenous: the binding entry in assay [1] is given as “binds”.

B1: DWARF14 (D14), endogenous (protein, UniProt Q9SQR3 1-267)
chain: MSQHNILEALNVRVVGTGDRILFLAHGFGTDQSAWHLILPYFTQNYRVVLYDLVCAGSVNPDYFDFNRYTTLDPYVDDLLNIVDSLGIQNCAYVGHSVSAMIGIIASIRRPELFSKLILIGFSPRFLNDEDYHGGFEEGEIEKVFSAMEANYEAWVHGFAPLAVGADVPAAVREFSRTLFNMRPDISLFVSRTVFNSDLRGVLGLVRVPTCVIQTAKDVSVPASVAEYLRSHLGGDTTVETLKTEGHLPQLSAPAQLAQFLRRALPR
Consider B1, for which, in assay [2], the binding result is reported as “no binding”.
